Measured values from article PMC12509902, “PRMT1/PRMT5-Mediated Differential Arginine Methylation of CRIP1 Promotes the Recurrence of Small Cell Lung Cancer after Chemotherapy” (International Journal of Biological Sciences, 2025).
Read-outs that look alike come from different tables or passages of the source. These are yes or no findings as the source states them, for the method shown. For some of these results: In cells and extracts the contact can be indirect. Some entries that bind do so weakly or less than the wild type. For some of these results: Tags and fused reporters may be left off the sequences shown. One block for each molecule: values may come before it.

Sequences of proteins named here, by UniProt entry; tags and fusion partners are left off. A change or cut given only in a name is not applied to a line headed by its entry.
UniProt Q99873: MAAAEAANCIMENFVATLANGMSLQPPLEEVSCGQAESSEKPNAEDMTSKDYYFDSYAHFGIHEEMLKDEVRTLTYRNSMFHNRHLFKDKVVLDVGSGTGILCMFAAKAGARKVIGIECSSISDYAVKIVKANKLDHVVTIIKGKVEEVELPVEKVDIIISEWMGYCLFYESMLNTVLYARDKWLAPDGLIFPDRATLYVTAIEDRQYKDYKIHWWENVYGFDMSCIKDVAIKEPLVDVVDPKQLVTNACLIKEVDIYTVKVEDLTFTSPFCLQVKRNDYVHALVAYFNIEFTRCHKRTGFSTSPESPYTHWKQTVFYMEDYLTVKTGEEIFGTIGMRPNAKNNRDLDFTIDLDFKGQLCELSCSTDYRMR
UniProt O14744: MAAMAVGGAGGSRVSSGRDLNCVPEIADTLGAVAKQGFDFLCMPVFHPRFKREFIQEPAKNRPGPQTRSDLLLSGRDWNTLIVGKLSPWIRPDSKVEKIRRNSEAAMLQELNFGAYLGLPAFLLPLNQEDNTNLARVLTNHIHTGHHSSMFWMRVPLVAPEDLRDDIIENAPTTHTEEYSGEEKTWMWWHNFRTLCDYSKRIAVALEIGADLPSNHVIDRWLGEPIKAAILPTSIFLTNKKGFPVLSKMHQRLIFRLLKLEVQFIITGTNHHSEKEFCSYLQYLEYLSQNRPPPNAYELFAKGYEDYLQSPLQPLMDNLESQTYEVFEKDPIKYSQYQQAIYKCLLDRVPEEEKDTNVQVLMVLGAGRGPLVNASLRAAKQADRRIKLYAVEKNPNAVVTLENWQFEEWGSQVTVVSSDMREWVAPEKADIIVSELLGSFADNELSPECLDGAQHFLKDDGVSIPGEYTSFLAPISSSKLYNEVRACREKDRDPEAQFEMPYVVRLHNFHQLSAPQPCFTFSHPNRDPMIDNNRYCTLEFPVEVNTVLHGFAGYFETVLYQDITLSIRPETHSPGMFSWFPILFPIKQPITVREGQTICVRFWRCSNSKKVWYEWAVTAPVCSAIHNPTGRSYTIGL
UniProt P40337: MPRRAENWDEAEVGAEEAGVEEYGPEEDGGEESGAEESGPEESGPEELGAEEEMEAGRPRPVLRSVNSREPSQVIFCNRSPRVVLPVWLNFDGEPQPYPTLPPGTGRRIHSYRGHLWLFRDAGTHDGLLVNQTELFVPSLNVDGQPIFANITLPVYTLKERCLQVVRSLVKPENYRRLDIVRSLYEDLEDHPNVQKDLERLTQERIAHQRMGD

Experiments:
[1] = target: T1, GST-CRIP1 (1-57aa) (UniProt P50238); assay: pull-down; GST-CRIP1 and truncation mutants incubated with HEK-293T lysate or PRMT5-overexpressing HEK-293T lysate; only the target purified
T1 sequence: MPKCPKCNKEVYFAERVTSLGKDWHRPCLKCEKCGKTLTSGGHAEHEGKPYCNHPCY

[2] = target: T2, 3×Flag-CRIP1 (cysteine-rich intestinal protein 1), wild type (UniProt P50238); assay: co-IP; HEK-293T cells transfected with tagged plasmids; lysis in Buffer A (25 mM Tris-HCl pH 8.0, 10 mM NaCl, 1 mM EDTA, 0.5% NP-40); antibody overnight at 4 °C, Protein A/G magnetic beads, PBS washes, western blot; also after knock-down of PRMT1 or PRMT5
T2 sequence: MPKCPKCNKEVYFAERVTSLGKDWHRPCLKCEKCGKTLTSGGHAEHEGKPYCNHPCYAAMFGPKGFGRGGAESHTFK

[3] = target: PRMT1 (experiments of Fig. S6E and S6G-J) (UniProt Q99873); assay: co-IP; co-immunoprecipitation and western blot; cells and constructs not shown (Fig. S5D, S6G-I)
[4] = target: PRMT1 (experiments of Fig. S6E and S6G-J) (UniProt Q99873); assay: co-IP; co-immunoprecipitation of a pair in cells overexpressing a third protein (CRIP1 WT, R16F or R16K in Fig. S5E; PELI1 in Fig. S6J); cells and constructs not shown
[5] = target: PRMT1 (endogenous, HEK-293T) (human (endogenous in HEK-293T)) (UniProt Q99873); assay: co-IP; HEK-293T cells transfected with tagged plasmids; lysis in Buffer A (25 mM Tris-HCl pH 8.0, 10 mM NaCl, 1 mM EDTA, 0.5% NP-40); antibody overnight at 4 °C, Protein A/G magnetic beads, PBS washes, western blot; also after knock-down of PRMT1 or PRMT5
[6] = target: T3, GST-CRIP1, full-length (FL), wild type (UniProt P50238); assay: pull-down; GST pull-down as described in ref. 23; GST-tagged protein expressed in BL21; Flag-tagged protein purified from HEK-293T by Flag affinity gel and 3× FLAG peptide elution; the paper calls the binding direct; both purified
T3 sequence: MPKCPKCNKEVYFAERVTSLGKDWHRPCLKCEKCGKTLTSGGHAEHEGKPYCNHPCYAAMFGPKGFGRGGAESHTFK

[7] = target: T4, GST-CRIP1 (58-77aa) (UniProt P50238); assay: pull-down; GST-CRIP1 and truncation mutants incubated with HEK-293T lysate or PRMT5-overexpressing HEK-293T lysate; only the target purified
T4 sequence: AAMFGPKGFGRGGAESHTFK

[8] = target: PRMT1 (endogenous, HEK-293T) (human (endogenous in HEK-293T)) (UniProt Q99873); assay: co-IP; HEK-293T cells transfected with tagged plasmids; lysis in Buffer A (25 mM Tris-HCl pH 8.0, 10 mM NaCl, 1 mM EDTA, 0.5% NP-40); antibody overnight at 4 °C, Protein A/G magnetic beads, PBS washes, western blot; also after knock-down of PRMT1 or PRMT5; remark: listed apart in the source
[9] = target: T5, CRIP1 WT (co-immunoprecipitations of Fig. S5D and S5E) (UniProt P50238); assay: co-IP; co-immunoprecipitation and western blot; cells and constructs not shown (Fig. S5D, S6G-I)
T5 sequence: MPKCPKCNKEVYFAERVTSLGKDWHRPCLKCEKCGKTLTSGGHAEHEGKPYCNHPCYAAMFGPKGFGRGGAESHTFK

Molecule: PRMT1 (endogenous, HEK-293T) (from UniProt Q99873 1-371) (enzyme)
binding [1]: binds
binding [2]: binds

Molecule: HA-PRMT5 (from UniProt O14744 1-637) (enzyme)
binding [2]: binds

Molecule: Flag-PRMT1 (from UniProt Q99873 1-371) (enzyme)
binding [6]: binds

Molecule: PRMT5 overexpressed in HEK-293T (lysate for the GST pull-down with CRIP1 domains) (from UniProt O14744 1-637) (enzyme)
binding [1]: binds
binding [7]: binds

B1: 3×Flag-PELI3 (enzyme, UniProt Q8N2H9 1-469)
chain: MVLEGNPEVGSPRTSDLQHRGNKGSCVLSSPGEDAQPGEEPIKYGELIVLGCCEEGGEETEAQRGEVTGPRAHSCYNGCLASGDKGRRRSRLALSRRSHANGVKPDVMHHISTPLVSKALSNRGQHSISYTLSRSHSVIVEYTHDSDTDMFQIGRSTENMIDFVVTDTSPGGGAAEGPSAQSTISRYACRILCDRRPPYTARIYAAGFDASSNIFLGERAAKWRTPDGLMDGLTTNGVLVMHPAGGFSEDSAPGVWREISVCGNVYTLRDSRSAQQRGKLVENESNVLQDGSLIDLCGATLLWRTPAGLLRAPTLKQLEAQRQEANAARPQCPVGLSTLAFPSPARGRTAPDKQQPWVYVRCGHVHGYHGWGCRRERGPQERECPLCRLVGPYVPLWLGQEAGLCLDPGPPSHAFAPCGHVCSEKTARYWAQTPLPHGTHAFHAACPFCGAWLTGEHGCVRLIFQGPLD
binding [8]: binds

B3: MKK3 (enzyme, UniProt P46734 1-347)
chain: MESPASSQPASMPQSKGKSKRKKDLRISCMSKPPAPNPTPPRNLDSRTFITIGDRNFEVEADDLVTISELGRGAYGVVEKVRHAQSGTIMAVKRIRATVNSQEQKRLLMDLDINMRTVDCFYTVTFYGALFREGDVWICMELMDTSLDKFYRKVLDKNMTIPEDILGEIAVSIVRALEHLHSKLSVIHRDVKPSNVLINKEGHVKMCDFGISGYLVDSVAKTMDAGCKPYMAPERINPELNQKGYNVKSDVWSLGITMIEMAILRFPYESWGTPFQQLKQVVEEPSPQLPADRFSPEFVDFTAQCLRKNPAERMSYLELMEHPFFTLHKTKKTDIAAFVKEILGEDS
binding [9]: binds

Results, then the molecule that gave them:

binding [2]: binds
Molecule: PRMT5 (endogenous, HEK-293T) (from UniProt O14744 1-637) (enzyme)

binding [3]: binds
binding [4]: binds
Molecule: PRMT5 (co-immunoprecipitations of Fig. S6G-J) (from UniProt O14744 1-637) (enzyme)

binding [5]: binds
Molecule: 3×Flag-VHL (from UniProt P40337 1-213)

binding [8]: binds
B2: 3×Flag-PELI2 (enzyme, UniProt Q9HAT8 1-420)
chain: MFSPGQEEHCAPNKEPVKYGELVVLGYNGALPNGDRGRRKSRFALYKRPKANGVKPSTVHVISTPQASKAISCKGQHSISYTLSRNQTVVVEYTHDKDTDMFQVGRSTESPIDFVVTDTISGSQNTDEAQITQSTISRFACRIVCDRNEPYTARIFAAGFDSSKNIFLGEKAAKWKNPDGHMDGLTTNGVLVMHPRGGFTEESQPGVWREISVCGDVYTLRETRSAQQRGKLVESETNVLQDGSLIDLCGATLLWRTADGLFHTPTQKHIEALRQEINAARPQCPVGLNTLAFPSINRKEVVEEKQPWAYLSCGHVHGYHNWGHRSDTEANERECPMCRTVGPYVPLWLGCEAGFYVDAGPPTHAFTPCGHVCSEKSAKYWSQIPLPHGTHAFHAACPFCATQLVGEQNCIKLIFQGPID
